According to PubChem BioAssay AID2685 (National Center for Advancing Translational Sciences (NCATS), 2010):
Some of the results follow. These are further read-outs of the screen, such as a control signal, another cell line or another target. No call is given for them. Compounds called inactive in the main read-out are mostly missing here. Words in brackets tell the shape of the fitted curve; partial curves, single points and poor fits give uncertain potencies.

Assay: qHTS Assay for Lipid Storage Modulators in Drosophila S3 Cells;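 as to cell number change: cells counted by Cell Tracker Red CMTPX staining in the red channel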
Settings: BODIPY lipid droplet fluorescence, 18-24 h; for cell number change: measured here: cell count max response, cells fed with added oleic acid
In short: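 Drosophila S3 cells got compounds at several concentrations plus oleic acid (400 uM solution). Laser-scanning cytometry with 488 nm excitation read lipid droplets at 500-530 nm and cells at 575-640 nm. Percent activity was relative to 20 uM Triacsin C.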

[1] = measured here: lipid fluorescence (Fed channel) AC50, cells fed with added oleic acid
[2] = measured here: cell number channel AC50, cells fed with added oleic acid

Row | SMILES | cell number change | AC50 [1] | AC50 [2]
1 | COc1ccccc1CNC(=O)/C=C/c1ccc(S(=O)(=O)N2CCOCC2)cc1 | -1.59% | 29.1 µM [rising, single point] | 
2 | Cn1ncc2c(=O)n(/N=C/c3ccccc3)cnc21 |  | 9.2 µM [falling, partial curve] | 
3 | CC(=O)Nc1cccc(NC(=O)c2csc(C)c2)c1 | 4.86% | 3.66 µM [falling, partial curve] | 
4 | O=C(O)CCN1C(=O)CC2(CCCCC2)C1=O | -12.8% | 0.82 µM [falling, full curve, poor fit] | 
5 | CNc1c(NS(=O)(=O)c2ccc(CC(C)C)cc2)c(=O)oc2ccccc12 | -6.31% | 29.1 µM [rising, single point] | 
6 | COc1ccc(C(=O)CSc2nnc(-c3ccco3)n2CC2CCCO2)cc1 (configuration not stated) | -35.6% |  | 1.84 µM [falling, partial curve, poor fit]
7 | COCC(C)OC(=O)C(C#N)c1nc2ccccc2nc1N1CCN(Cc2ccccc2)CC1 (configuration not stated) | -36.6% |  | 10.3 µM [falling, partial curve, poor fit]
8 | O=C(Nc1ccccc1C(=O)OCc1nnc(-c2ccccc2)o1)c1ccco1 | -21.9% | 1.64 µM [falling, full curve] | 
9 | CC(=O)c1cccc(NC(=O)C(OC(=O)/C=C/c2ccc3c(c2)OCO3)c2ccccc2)c1 (configuration not stated) | 17.8% |  | 0.0517 µM [rising, full curve, poor fit]
10 | N#Cc1ccc(Cl)cc1NC(=O)CNc1cccc(S(=O)(=O)N2CCCC2)c1 | 50% |  | 29.1 µM [rising, single point]
11 | Cn1c(SCc2c(Cl)cccc2Cl)nc(C(F)(F)F)cc1=O | 31.3% | 29.1 µM [rising, single point] | 3.66 µM [rising, full curve, poor fit]
12 | COc1ccc2[nH]c(C(=O)O)c(NS(=O)(=O)c3ccc(C)c(C)c3)c2c1 | -86.9% | 4.11 µM [falling, single point] | 
13 | Cn1ncc(Cl)c1C(=O)N1CCN(S(=O)(=O)c2ccc(Cl)s2)CC1 | -14.4% | 10.3 µM [rising, partial curve, poor fit] | 
14 | N#Cc1ccc(CSc2nnc(-c3ccccn3)n2-c2ccc(Cl)cc2)cc1 | 24.6% | 0.082 µM [rising, full curve, poor fit] | 
15 | CC(=O)c1cccc(N(CC(=O)N2CCCCC2)S(C)(=O)=O)c1 | -2.47% | 29.1 µM [falling, single point] | 
16 | CCCCCCC(=O)NC(Nc1ccc(S(N)(=O)=O)cc1)C(Cl)(Cl)Cl (configuration not stated) | -11.6% | 1.3 µM [falling, single point] | 

Some of these compounds in order of number of heavy atoms, falling.
Row | SMILES | cell number change | AC50 [1] | AC50 [2]
9 | CC(=O)c1cccc(NC(=O)C(OC(=O)/C=C/c2ccc3c(c2)OCO3)c2ccccc2)c1 (configuration not stated) | 17.8% |  | 0.0517 µM [rising, full curve, poor fit]
14 | N#Cc1ccc(CSc2nnc(-c3ccccn3)n2-c2ccc(Cl)cc2)cc1 | 24.6% | 0.082 µM [rising, full curve, poor fit] | 
16 | CCCCCCC(=O)NC(Nc1ccc(S(N)(=O)=O)cc1)C(Cl)(Cl)Cl (configuration not stated) | -11.6% | 1.3 µM [falling, single point] | 
13 | Cn1ncc(Cl)c1C(=O)N1CCN(S(=O)(=O)c2ccc(Cl)s2)CC1 | -14.4% | 10.3 µM [rising, partial curve, poor fit] | 
